Results are given in words; binding and its absence hold for the method and conditions named. Some entries that bind do so weakly or less than the wild type. Sequences can lack the tags named with a protein.

The target in the experiment is T1, Mre11 (His-tag at the C-terminus) (budding yeast) (UniProt P32829).
T1 sequence: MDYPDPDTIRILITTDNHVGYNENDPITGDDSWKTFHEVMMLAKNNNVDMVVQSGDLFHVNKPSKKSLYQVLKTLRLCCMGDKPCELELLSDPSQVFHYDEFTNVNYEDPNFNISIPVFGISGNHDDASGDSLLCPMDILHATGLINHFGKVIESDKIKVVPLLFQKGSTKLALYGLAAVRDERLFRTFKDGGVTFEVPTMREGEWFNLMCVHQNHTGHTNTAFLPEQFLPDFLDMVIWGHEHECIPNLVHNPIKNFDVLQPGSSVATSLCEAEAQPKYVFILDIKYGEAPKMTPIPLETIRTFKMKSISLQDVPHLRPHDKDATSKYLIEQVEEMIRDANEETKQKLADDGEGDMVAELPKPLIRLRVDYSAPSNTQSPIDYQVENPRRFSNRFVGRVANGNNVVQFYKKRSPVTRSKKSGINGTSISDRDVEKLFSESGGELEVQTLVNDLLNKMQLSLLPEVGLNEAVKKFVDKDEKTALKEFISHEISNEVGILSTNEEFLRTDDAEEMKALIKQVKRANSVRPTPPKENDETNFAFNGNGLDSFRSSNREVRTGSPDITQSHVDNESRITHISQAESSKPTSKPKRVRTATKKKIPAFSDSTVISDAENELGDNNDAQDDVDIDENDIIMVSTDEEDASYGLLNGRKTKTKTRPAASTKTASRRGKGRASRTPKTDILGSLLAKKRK
Nature of the experiment: co-purification by affinity chromatography; Mre11-Rad50-Xrs2 co-expressed in Sf9 cells; NiNTA resin (His-tag on Mre11) followed by anti-FLAG M2 affinity resin (FLAG-tag on Xrs2).

B1: Rad50 (protein, UniProt P12753 1-1312)
chain: MSAIYKLSIQGIRSFDSNDRETIEFGKPLTLIVGMNGSGKTTIIECLKYATTGDLPPNSKGGVFIHDPKITGEKDIRAQVKLAFTSANGLNMIVTRNIQLLMKKTTTTFKTLEGQLVAINNSGDRSTLSTRSLELDAQVPLYLGVPKAILEYVIFCHQEDSLWPLSEPSNLKKKFDEIFQAMKFTKALDNLKSIKKDMSVDIKLLKQSVEHLKLDKDRSKAMKLNIHQLQTKIDQYNEEVSEIESQLNEITEKSDKLFKSNQDFQKILSKVENLKNTKLSISDQVKRLSNSIDILDLSKPDLQNLLANFSKVLMDKNNQLRDLETDISSLKDRQSSLQSLSNSLIRRQGELEAGKETYEKNRNHLSSLKEAFQHKFQGLSNIENSDMAQVNHEMSQFKAFISQDLTDTIDQFAKDIQLKETNLSDLIKSITVDSQNLEYNKKDRSKLIHDSEELAEKLKSFKSLSTQDSLNHELENLKTYKEKLQSWESENIIPKLNQKIEEKNNEMIILENQIEKFQDRIMKTNQQADLYAKLGLIKKSINTKLDELQKITEKLQNDSRIRQVFPLTQEFQRADLEMDFQKLFINMQKNIAINNKKMHELDRRYTNALYNLNTIEKDLQDNQKSKEKVIQLLSENLPEDCTIDEYNDVLEETELSYKTALENLKMHQTTLEFNRKALEIAERDSCCYLCSRKFENESFKSKLLQELKTKTDANFEKTLKDTVQNEKEYLHSLRLLEKHIITLNSINEKIDNSQKCLEKAKEETKTSKSKLDELEVDSTKLKDEKELAESEIRPLIEKFTYLEKELKDLENSSKTISEELSIYNTSEDGIQTVDELRDQQRKMNDSLRELRKTISDLQMEKDEKVRENSRMINLIKEKELTVSEIESSLTQKQNIDDSIRSKRENINDIDSRVKELEARIISLKNKKDEAQSVLDKVKNERDIQVRNKQKTVADINRLIDRFQTIYNEVVDFEAKGFDELQTTIKELELNKAQMLELKEQLDLKSNEVNEEKRKLADSNNEEKNLKQNLELIELKSQLQHIESEISRLDVQNAEAERDKYQEESLRLRTRFEKLSSENAGKLGEMKQLQNQIDSLTHQLRTDYKDIEKNYHKEWVELQTRSFVTDDIDVYSKALDSAIMKYHGLKMQDINRIIDELWKRTYSGTDIDTIKIRSDEVSSTVKGKSYNYRVVMYKQDVELDMRGRCSAGQKVLASIIIRLALSETFGANCGVIALDEPTTNLDEENIESLAKSLHNIINMRRHQKNFQLIVITHDEKFLGHMNAAAFTDHFFKVKRDDRQKSQIEWVDINRVTY
As for B1, the binding result is “binds”.

B2: Xrs2 (FLAG-tag at the C-terminus) (protein, UniProt P33301 1-854)
chain: MWVVRYQNTLEDGSISFISCCLQAFKTYSIGRSSKNPLIIKNDKSISRQHITFKWEINNSSDLKHSSLCLVNKGKLTSLNKKFMKVGETFTINASDVLKSTIIELGTTPIRIEFEWINEVWNIPPHLTQFRTMLSEYGISTEISINDIPANLMISDYPKSEDNSIRELYALVSTIPMKKSRFLMELCNTLLPTSKTNLKFDEMWNDMISNPEYNVFDFDPNILLSKFMRLNNIRVLTTIKSEPRLSSLLRTFNINLFAFDNIDSLYKYVDSLEASTEYLILTTTDKKENGKILCTIKTMLTSIIDGTLSAVINMKGASSRTLDNGKFDQISEGMSTILKTSRAPEVEASPVVSKKRKLNRRRVLPLDSLDFFAGGLSTKTLSENRSLTDAKRLNCGAESKTVISSPNIAEADEKHAPFLQNALKPTEDIGKKSGHSSPGAIIVSSPNLGTVNTSEDSLDKSLQSHKLPQPSLPEVAGIGSQTISSNSADYETAAVNSMDDAEVTKNFRVNHHQNIEQPSKNIRKLSNYSREISSPLQENCKSPVKELSIKEKSGTPHAFVEAIQETKNREVKRVKSTIVELKDEELSEEAINQLKNLAIVEPSNNLLRKSFDSEGNKTSRTTEKWENSLMEPEWHKRKNFKTFVKVRPKSKAHKEEGKNNTQSSDFIRNAAFLITRNYVPLKKYSKKDTTTKWGTEENEDMFALTEMERFGSNTFMSDNINSNTIQKRSQALNRFTNEDSSNEGEEDSFSFSRCSGTAASVQPLKNKIFITDEDDLGDIDDKSDRLNHRENNRNLFVVKEMNLRPNLSEECSKQSRHSRSATSRSRGSFGASNNGDGDDDDDDGPKFTFKRRKG
With B2, the binding result is on record as “binds”.
